According to the supplement of paper PMC3334620:
The full ranking holds about 33,000 sequences; the median of “E-score (-0.5 to 0.5)” is about -0.016, and the highest 2% start at about 0.3. This is one part of the list.

Target: T1, Yer184c (UniProt P39961)
T1 sequence: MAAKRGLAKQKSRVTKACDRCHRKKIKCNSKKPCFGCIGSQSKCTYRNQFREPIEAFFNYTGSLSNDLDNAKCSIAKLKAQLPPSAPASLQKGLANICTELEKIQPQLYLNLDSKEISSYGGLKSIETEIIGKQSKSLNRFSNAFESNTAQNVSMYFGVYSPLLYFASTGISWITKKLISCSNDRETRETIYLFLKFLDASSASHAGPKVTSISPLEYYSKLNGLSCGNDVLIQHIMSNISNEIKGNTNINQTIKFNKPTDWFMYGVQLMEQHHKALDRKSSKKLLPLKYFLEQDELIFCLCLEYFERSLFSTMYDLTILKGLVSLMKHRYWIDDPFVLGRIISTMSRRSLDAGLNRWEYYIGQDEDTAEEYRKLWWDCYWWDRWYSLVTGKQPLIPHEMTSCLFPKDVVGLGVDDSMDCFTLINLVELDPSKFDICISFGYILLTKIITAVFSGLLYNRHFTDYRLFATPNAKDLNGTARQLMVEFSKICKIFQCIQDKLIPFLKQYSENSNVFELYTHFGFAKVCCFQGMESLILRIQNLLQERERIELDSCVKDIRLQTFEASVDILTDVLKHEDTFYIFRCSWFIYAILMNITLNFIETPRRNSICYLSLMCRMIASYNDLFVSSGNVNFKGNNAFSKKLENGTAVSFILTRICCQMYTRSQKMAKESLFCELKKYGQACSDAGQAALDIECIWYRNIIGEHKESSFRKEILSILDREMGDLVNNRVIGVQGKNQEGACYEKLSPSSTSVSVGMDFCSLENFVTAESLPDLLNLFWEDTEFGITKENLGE
Experiment: PBM E-score (8-mer binding enrichment) (E-score (-0.5 to 0.5)); higher = stronger / more preferred TF binding
Conditions: protein concentration: 100 nM; construct: GST-full length
Summary of the method: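 E-scores (a modified Wilcoxon-Mann-Whitney statistic) were assigned by the Universal PBM Analysis Suite to every ungapped eight-base word pooled with its reverse complement. The input came from universal all-10-mer Agilent arrays made double-stranded by primer extension and probed with GST-tagged yeast transcription factors at about 100-200 nM. Fluorescent anti-GST detected bound protein, and masliner normalised the scans.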

Row | Sequence | PBM E-score
1 | CATTAACA | 0.0428
2 | CGACTGAG | -0.107
3 | AGTGGAAT | -0.0073
4 | CCACGCAC | 0.0441
5 | ATATGGTC | -0.00957
6 | ATCTGCCA | -0.0702
7 | CTCGCTTA | 0.0271
8 | AAATTGTT | 0.16
9 | ACAGCTGC | -0.0321
10 | ATGATTGA | 0.0273
11 | ATAACCTG | -0.208
12 | GGAGGGCC | -0.308
13 | CTGACCTA | -0.14
14 | ACCACACA | 0.00327
15 | AGCTATGC | -0.239
16 | CAATGGCA | -0.078
17 | CTACTTAC | -0.0111
18 | CATCTGAC | -0.183
19 | AATTCTGT | 0.099
20 | AACAATTA | 0.261
21 | GGTGGGAC | -0.349
22 | GCCGAACC | 0.323
23 | AACTATCC | 0.025
24 | CGATCGAA | 0.0725
25 | ATGGCGCA | -0.0903

Row | Sequence | PBM E-score
26 | AATCCGCG | 0.163
27 | ACTATTTA | 0.231
28 | CACATAGC | -0.0851
29 | GAGTAGTA | 0.0836
30 | CCAGTACC | -0.236
31 | CCTACCCG | -0.00507
32 | AGCCGGGG | 0.0566
33 | GCGTTTCA | 0.0673
34 | GGTGTCCA | -0.0634
35 | ACTGAAAG | 0.105
36 | CCAGCGTA | -0.0152
37 | CCCTTGGA | -0.0497
38 | ATTACACC | 0.0279
39 | CTACGCAC | -0.0922
40 | CGTTACAC | 0.0665
41 | GAAGCTTC | 0.0597
42 | CCGAGGTA | 0.0952
43 | GGCATCCA | -0.179
44 | GAATTCAA | 0.251
45 | GGTTAGCA | -0.107
46 | AAAAATGC | 0.143
47 | CAAAGTCA | 0.0372
48 | AGATGCAC | -0.348
49 | CTATTCGA | -0.0207
50 | CTTGCCGC | 0.0967

Exported tab-delimited: part of the list above.
Row	Sequence	PBM E-score
15	AGCTATGC	-0.239
16	CAATGGCA	-0.078
18	CATCTGAC	-0.183
19	AATTCTGT	0.099
20	AACAATTA	0.261
21	GGTGGGAC	-0.349
22	GCCGAACC	0.323
23	AACTATCC	0.025
24	CGATCGAA	0.0725
25	ATGGCGCA	-0.0903
26	AATCCGCG	0.163
27	ACTATTTA	0.231
28	CACATAGC	-0.0851
29	GAGTAGTA	0.0836
30	CCAGTACC	-0.236
31	CCTACCCG	-0.00507
32	AGCCGGGG	0.0566
33	GCGTTTCA	0.0673
34	GGTGTCCA	-0.0634
35	ACTGAAAG	0.105
37	CCCTTGGA	-0.0497
38	ATTACACC	0.0279
39	CTACGCAC	-0.0922
40	CGTTACAC	0.0665
41	GAAGCTTC	0.0597
42	CCGAGGTA	0.0952
43	GGCATCCA	-0.179
44	GAATTCAA	0.251
46	AAAAATGC	0.143
47	CAAAGTCA	0.0372
48	AGATGCAC	-0.348
49	CTATTCGA	-0.0207
50	CTTGCCGC	0.0967

(cont.)

Row | Sequence | PBM E-score
51 | GCTCCGAA | 0.298
52 | AGTATTCC | 0.166
53 | CAGCACTA | -0.097
54 | GGAGCCGA | 0.177
55 | CCCAGTTC | 0.0635
56 | AAGTATTG | -0.0329
57 | TATTTGCA | 0.104
58 | TGTCCACA | -0.00412
59 | ACACTGAT | -0.125
60 | GTGTTTGA | 0.15
61 | GAACGGAC | 0.082
62 | AAGCATTG | -0.231
63 | AAGGGTAC | -0.138
64 | AACAAGTG | 0.00907
65 | AGGAGATC | 0.05
66 | AGCCTTAA | 0.0753
67 | GTGGAGCA | 0.0109
68 | AATCTTCA | 0.196
69 | CGACCCAC | -0.0723
70 | AGGAAGCC | 0.03
71 | ATGAGCAC | -0.0939
72 | ACGTGAAG | -0.104
73 | CCACGTAC | -0.342
74 | CAGCGAGA | -0.165
75 | AGCTATAA | -0.0676

Row | Sequence | PBM E-score
76 | CGGGGAAG | 0.0845
77 | GATCCAGC | -0.207
78 | ATTCTGGC | 0.0115
79 | AAAGAAAC | 0.264
80 | AAAAATCC | 0.0959
81 | ATCCACCC | -0.274
82 | TCAGTGAA | -0.0744
83 | ACCTGGCG | -0.268
84 | CCATGATC | -0.197
85 | GGCCTAAC | 0.0745
86 | CAACTGCC | 0.0774
87 | GCTAGGGA | -0.213
88 | CCAAGACC | -0.163
89 | AGATATAA | 0.157
90 | ATCGTTCA | 0.0333
91 | CTTTTTCA | 0.0208
92 | CTAAAGAC | -0.119
93 | ACTGATTG | -0.137
94 | AACCTATT | -0.139
95 | AGGGAACG | -0.0901
96 | CCCTAAGA | -0.228
97 | GAGTAAAC | 0.0603
98 | ATTACGTA | 0.113
99 | GTTAGAAC | -0.0333
100 | AGCTCGGG | 0.138

Row | Sequence | PBM E-score
101 | AATCAGTA | 0.00154
102 | GCGATGTA | -0.0966
103 | AGTCTGTG | -0.0884
104 | ACCTCTGC | -0.24
105 | GGACGTGA | -0.265
106 | AGTACCAG | 0.0281
107 | AATGCTTC | 0.055
108 | TAACCGGA | 0.279
109 | CACTACAC | -0.0195
110 | CGTTTGGA | -0.059
111 | CTTTGGCC | -0.0755
112 | CGGGCATA | -0.0118
113 | AAGCTGCG | -0.141
114 | AATGAGAC | -0.187
115 | TCAACCAA | 0.00012
116 | ACCTTGAT | 0.104
117 | TGATGTAA | 0.152
118 | GTGGTTCA | 0.0362
119 | CCGGGGTA | 0.129
120 | CCAGGGGG | -0.342
121 | ACTGGCCC | -0.169
122 | AATGTGGG | -0.155
123 | GCGAACAA | 0.246
124 | GCGTCTCA | 0.00627
125 | AAGAGACA | -0.00829

Copied from the list:
Value for ACCTCTGC under PBM E-score: -0.24
Value for AAGCTGCG under PBM E-score: -0.141

Following part:

Row | Sequence | PBM E-score
126 | ACCGCCCA | 0.00012
127 | AACAGGGC | -0.186
128 | CTCAAATC | -0.224
129 | AACCAAAG | -0.00782
130 | CCACGGCC | 0.019
131 | CAAACCTA | -0.0405
132 | AGCATTCC | 0.052
133 | CAACATAG | -0.177
134 | CTTTTTTA | 0.132
135 | ACCTACTA | -0.105
136 | TTACCGAA | 0.336
137 | TGATATCA | 0.0471
138 | ATAGGATC | -0.00942
139 | ATTATGCG | 0.171
140 | ACTGTGAG | -0.0309
141 | CTATCACA | 0.0155
142 | GCTTACCA | 0.0715
143 | CATACGTA | 0.0443
144 | GTGATCTA | 0.16
145 | ACCACATA | 0.104
146 | ACGCATCG | -0.102
147 | GAACGTAC | -0.0988
148 | CTCTTTAA | 0.0738
149 | ATAACTCA | 0.0762
150 | ACTCTTGA | -0.13

Row | Sequence | PBM E-score
151 | GGGCATAA | 0.0125
152 | TCAATTAA | 0.196
153 | GGAGCGAC | -0.0787
154 | GAACTCTA | 0.00847
155 | CGTTGGGC | -0.196
156 | AGGCTGAT | -0.161
157 | CCAAAAAA | 0.275
158 | GCTCCCCC | -0.395
159 | AAAAACGT | 0.0244
160 | AGGCTTAC | -0.0812
161 | CGGCATAC | 0.195
162 | CACACGAC | -0.128
163 | AAGTTGTG | -0.0216
164 | ATTACACG | -0.0203
165 | AACAAATA | 0.204
166 | AGGGTAAG | 0.131
167 | AGATGAAT | -0.145
168 | TAAACGCA | 0.0568
169 | TCCCACGA | 0.0909
170 | CCGGACTA | 0.273
171 | GCTAGGTA | -0.0529
172 | CCTGACGA | 0.0162
